{"source": "patent US5364854A", "about": "“Derivatives of substituted imidazo benzoxazin-1-one and process for their preparation” (Farmitalia Carlo Erba S.r.l., priority 1992, dated 1994)", "note": "Counter-ions that a name gives are not always drawn. Some compounds share one wording; it may come from a single statement.", "data": [{"system": "5-HT3 receptor", "test": "Inhibition of the binding of ^3 H-GR65630 to 5-HT3 sites in rat entorhinal cortex", "conditions": "^3 H-GR 65630, rat entorhinal cortex, non-linear fitting", "source_text": "The following Table II reports the data obtained in this in vitro test for a representative group of compounds of the invention in comparison with the known reference compounds MDL 72222 and Metoclopramide.\n5-HT3 binding affinity ^(a) for rat entorhinal cortex\n^(a) [^3 HGR 65630 labelled 5HT3 sites.\nThe tested compounds were able to interact with 5-HT3 -serotonin receptors labelled in the entorhinal cortex of the rat brain with ^3 H-GR 65630.", "values": [{"smiles": "Cl.O=C1N(C2CN3CCC2CC3)CC2COc3ccc(Cl)cc3N12", "note": "(stereo not drawn) [FCE 26781, 2,3,3a,4-tetrahydro-2-(1-azabicyclo [2.2.2]oct-3-yl)-8-chloro-1H-imidazo[5,1-c][1,4]benzoxazin-1-one hydrochloride]", "displacement fitting model": "two site non-linear fitting model"}, {"smiles": "CN1C2CCC1CC(N1CC3COc4ccc(Cl)cc4N3C1=O)C2", "note": "(stereo not drawn) [FCE 26783, (endo)-2,3,3a,4-tetrahydro-8-chloro-2-(8-methyl-8-azabicyclo [3.2.1]oct-3-yl)-1H-imidazo[5,1-c][1,4]benzoxazin-1-one hydrochloride]", "displacement fitting model": "one site non-linear fitting"}, {"smiles": "CN1C2CCC1CC(N1CC3COc4ccccc4N3C1=O)C2", "note": "(stereo not drawn) [FCE 26878, (endo)-2,3,3a,4-tetrahydro-2-(8-methyl-8-azabicyclo[3.2.1]oct-3-yl)-1H-imidazo[5,1-c][1,4]benzoxazin-1-one, hydrochloride]", "displacement fitting model": "one site non-linear fitting"}, {"smiles": "CN1C2CCCC1CC(N1CC3COc4ccccc4N3C1=O)C2", "note": "(stereo not drawn) [FCE 26963, (endo)-2,3,3a,4-tetrahydro-2-(9-methyl-9-azabicyclo[3.3.1]non-3-yl)-1H-imidazo[5,1-c][1,4]benzoxazin-1-one hydrochloride]", "displacement fitting model": "two site non-linear fitting model"}, {"smiles": "CN1C2CCC1CC(OC(=O)c1cc(Cl)cc(Cl)c1)C2", "note": "(stereo not drawn) [MDL 72222, reference compound]", "displacement fitting model": "one site non-linear fitting"}, {"smiles": "CCN(CC)CCNC(=O)c1cc(Cl)c(N)cc1OC", "note": "[Metoclopramide, reference compound]", "displacement fitting model": "one site non-linear fitting"}]}]}
